Results: PMC10409943
Results are given in words; binding and its absence hold for the method and conditions named. Binding seen in cells or lysates may run through a third protein. Some entries that bind do so weakly or less than the wild type. Values belong to the molecule of their own block, whether it stands above or below them.

Amino acid sequences for entries named in this document (tags omitted). Residues count along the entry.
UniProt P10912, residues 19-638: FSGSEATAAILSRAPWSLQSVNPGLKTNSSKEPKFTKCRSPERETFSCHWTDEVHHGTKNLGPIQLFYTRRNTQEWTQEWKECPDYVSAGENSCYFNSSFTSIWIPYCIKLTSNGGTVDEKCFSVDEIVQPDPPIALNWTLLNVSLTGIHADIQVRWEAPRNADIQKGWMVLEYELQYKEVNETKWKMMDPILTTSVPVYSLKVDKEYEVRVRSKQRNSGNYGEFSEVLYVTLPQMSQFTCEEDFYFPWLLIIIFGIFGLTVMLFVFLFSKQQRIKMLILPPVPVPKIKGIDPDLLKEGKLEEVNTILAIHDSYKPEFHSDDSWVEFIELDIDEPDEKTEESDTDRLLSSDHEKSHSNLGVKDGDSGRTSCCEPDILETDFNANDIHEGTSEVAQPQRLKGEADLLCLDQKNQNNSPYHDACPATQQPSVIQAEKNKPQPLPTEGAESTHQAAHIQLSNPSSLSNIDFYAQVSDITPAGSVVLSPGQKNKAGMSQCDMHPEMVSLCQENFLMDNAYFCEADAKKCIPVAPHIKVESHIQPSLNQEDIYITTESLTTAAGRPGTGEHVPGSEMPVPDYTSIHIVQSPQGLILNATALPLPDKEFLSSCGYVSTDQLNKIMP

Tests used:
[1] = biological target: T1, high mobility group nucleosome binding domain 1 (human (endogenous in RL95-2)) (UniProt P05114); test: co-IP; nuclear and cytoplasmic fractions of serum-starved RL95-2 cells treated with 500 ng/ml GH for 0 and 5 min; precipitated with the combination of anti-GHR antibodies (ab89400 and sc-137185) or with an HMGN1 antibody; blotted for HMGN1 or GHR
T1 sequence: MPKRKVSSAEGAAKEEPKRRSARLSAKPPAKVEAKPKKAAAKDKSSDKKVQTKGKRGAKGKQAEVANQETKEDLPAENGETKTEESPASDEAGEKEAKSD

[2] = biological target: growth hormone receptor (human (endogenous in RL95-2)) (UniProt P10912); test: as above

- binding [1]: binds
Molecule: growth hormone receptor (from UniProt P10912 19-638)

- binding [2]: binds
B1: high mobility group nucleosome binding domain 1 (protein, UniProt P05114 1-100)
chain: T1 sequence
